No constants are given. Whether binding was seen depends on the method and setting. Sequences can lack the tags named with a protein.
Molecular target: 23S rRNA methyltransferase RlmJ from Escherichia coli, recombinant, with C-terminal hexahistidine tag (E. coli K-12 MG1655) (UniProt P37634)
Experiment: SEC; HiLoad 16/60 Superdex 75, buffer A (20 mM Tris-H2SO4 pH 7.5, 150 mM Na2SO4, 5% glycerol, 5 mM beta-mercaptoethanol), room temperature; after Ni-affinity step; apparent mass against protein standards; both purified

B1: 23S rRNA methyltransferase RlmJ from Escherichia coli, recombinant, with C-terminal hexahistidine tag (enzyme, UniProt P37634 1-280)
chain: MLSYRHSFHAGNHADVLKHTVQSLIIESLKEKDKPFLYLDTHAGAGRYQLGSEHAERTGEYLEGIARIWQQDDLPAELEAYINVVKHFNRSGQLRYYPGSPLIARLLLREQDSLQLTELHPSDYPLLRSEFQKDSRARVEKADGFQQLKAKLPPVSRRGLILIDPPYEMKTDYQAVVSGIAEGYKRFATGIYALWYPVVLRQQIKRMIHDLEATGIRKILQIELAVLPDSDRRGMTASGMIVINPPWKLEQQMNNVLPWLHSKLVPAGTGHATVSWIVPE
- binding: no binding
